Results reported in patent publication US20180224449A1.
Results are given in words; binding and its absence hold for the method and conditions named. Some results given as binding are weak or reduced against the parent protein; the word gives no strength.

By UniProt entry, the sequences of proteins in these tests, tags left out. Residues count along the entry.
UniProt P02769, residues 25-607: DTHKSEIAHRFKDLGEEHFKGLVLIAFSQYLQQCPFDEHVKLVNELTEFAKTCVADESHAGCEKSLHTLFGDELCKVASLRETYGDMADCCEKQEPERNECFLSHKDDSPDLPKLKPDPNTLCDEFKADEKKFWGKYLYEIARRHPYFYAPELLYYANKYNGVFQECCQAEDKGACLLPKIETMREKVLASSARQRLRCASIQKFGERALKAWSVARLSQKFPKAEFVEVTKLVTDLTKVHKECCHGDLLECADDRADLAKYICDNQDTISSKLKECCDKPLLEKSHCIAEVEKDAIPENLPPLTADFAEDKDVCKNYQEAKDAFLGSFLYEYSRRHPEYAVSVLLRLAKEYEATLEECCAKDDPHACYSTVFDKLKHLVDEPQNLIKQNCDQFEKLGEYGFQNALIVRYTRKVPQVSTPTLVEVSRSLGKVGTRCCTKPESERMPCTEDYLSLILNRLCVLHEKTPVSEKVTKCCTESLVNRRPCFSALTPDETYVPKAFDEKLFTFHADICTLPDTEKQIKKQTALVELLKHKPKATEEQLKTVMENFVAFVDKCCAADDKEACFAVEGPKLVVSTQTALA

Target: biotinylated bovine serum albumin (bovine) (UniProt P02769)
Test: biopanning of the phage library on biotinylated BSA

Binder	binding
IQTNPTM (peptide, not shown: large carriers) [M13 bacteriophage displaying the IQTNPTM peptide]	binds
PPKINIM (peptide, not shown: large carriers) [M13 phage displaying the PPKINIM peptide]	binds
